# Measured values as given in PMC11737852 (2025).
# By UniProt entry, the sequences of proteins in these tests, tags left out. Where a name states a change or a piece, a line headed by the entry shows the natural chain unless it says otherwise.
# UniProt P45974: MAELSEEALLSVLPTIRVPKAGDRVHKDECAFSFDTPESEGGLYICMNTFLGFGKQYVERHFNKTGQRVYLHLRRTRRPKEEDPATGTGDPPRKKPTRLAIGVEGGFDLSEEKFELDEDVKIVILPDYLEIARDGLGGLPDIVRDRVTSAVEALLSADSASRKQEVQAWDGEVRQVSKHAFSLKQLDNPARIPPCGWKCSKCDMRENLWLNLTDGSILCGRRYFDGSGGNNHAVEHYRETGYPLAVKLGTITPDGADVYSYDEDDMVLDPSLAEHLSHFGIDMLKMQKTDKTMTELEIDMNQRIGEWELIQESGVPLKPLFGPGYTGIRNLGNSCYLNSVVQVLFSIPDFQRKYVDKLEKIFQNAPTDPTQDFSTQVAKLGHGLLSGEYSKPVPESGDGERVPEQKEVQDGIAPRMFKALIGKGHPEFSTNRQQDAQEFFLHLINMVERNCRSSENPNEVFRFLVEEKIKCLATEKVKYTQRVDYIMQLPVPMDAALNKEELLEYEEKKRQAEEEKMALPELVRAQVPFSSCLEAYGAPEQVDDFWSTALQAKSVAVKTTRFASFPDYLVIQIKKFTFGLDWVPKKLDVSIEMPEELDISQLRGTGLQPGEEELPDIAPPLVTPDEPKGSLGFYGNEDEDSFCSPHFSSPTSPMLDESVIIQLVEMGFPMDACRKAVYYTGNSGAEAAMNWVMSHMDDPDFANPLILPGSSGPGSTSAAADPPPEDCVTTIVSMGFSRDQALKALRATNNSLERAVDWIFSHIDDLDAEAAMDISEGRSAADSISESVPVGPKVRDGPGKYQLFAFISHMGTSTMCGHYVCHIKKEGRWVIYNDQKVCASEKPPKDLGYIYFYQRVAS
# These are yes or no findings as the source states them, for the method shown. In cells and extracts the contact can be indirect. Some results given as binding are weak or reduced against the parent protein; the word gives no strength. For some of these results: Tags and fused reporters may be left off the sequences shown.
# How the values were obtained:
# Flag-IRF3 = molecular target: T1, Flag-IRF3 (UniProt Q14653); assay: proximity ligation; Duolink in situ PLA in HEK293T co-transfected for 24 h with Myc-USP5 and Flag-IRF3 constructs, then SeV (0.1 MOI) for 6 h; mouse anti-Flag and rabbit anti-Myc
# T1 sequence: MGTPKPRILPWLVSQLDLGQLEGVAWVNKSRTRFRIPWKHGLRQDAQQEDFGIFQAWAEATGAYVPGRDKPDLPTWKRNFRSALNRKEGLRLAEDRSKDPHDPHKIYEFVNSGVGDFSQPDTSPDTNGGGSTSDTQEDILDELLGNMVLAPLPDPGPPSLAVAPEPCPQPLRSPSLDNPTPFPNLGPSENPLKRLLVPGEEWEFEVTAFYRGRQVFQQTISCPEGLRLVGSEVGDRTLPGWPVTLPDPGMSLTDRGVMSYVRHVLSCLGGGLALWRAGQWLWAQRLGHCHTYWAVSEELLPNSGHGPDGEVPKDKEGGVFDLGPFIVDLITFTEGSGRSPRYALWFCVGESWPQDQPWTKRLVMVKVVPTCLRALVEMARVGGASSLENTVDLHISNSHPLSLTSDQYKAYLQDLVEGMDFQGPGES
# [1] = molecular target: T2, IRF3 (endogenous, A549) (human (endogenous in A549)) (UniProt Q14653); assay: proximity ligation; Duolink in situ PLA of endogenous proteins in A549 cells, mouse anti-USP5 and rabbit anti-IRF3, with or without SeV (0.1 MOI) for 6 h
# T2 sequence: T1 sequence
# IRF3-GlucC = molecular target: T3, IRF3-GlucC (UniProt Q14653); assay: split reporter; bimolecular luminescence complementation (Gaussia luciferase GlucN/GlucC) in HEK293T, 24 h after transfection, with or without poly(I:C) (1 μg/mL) for 6 h; luciferase measured from cell lysates
# T3 sequence: T1 sequence
binding (Flag-IRF3),Substance,further results
binds,Myc-USP5 (from UniProt P45974 1-858) (enzyme),–
binds,Myc-USP5-C335A (from UniProt P45974 1-858) (enzyme),–
–,"USP5 (endogenous, A549) (from UniProt P45974 1-858) (enzyme)",binding [1]: binds
–,USP5-GlucN (from UniProt P45974 1-858) (enzyme),binding (IRF3-GlucC): binds
